Results are given in words; binding and its absence hold for the method and conditions named. For some assays here: Binding can be weak; no strength is given. Each block holds one binder with its values, some of them ahead of it.
How the values were obtained:
[1] = molecular target: cytoplasmic domain of the IL-1 receptor; assay: yeast interaction trap, panel of baits
[2] = molecular target: region of the IL-1 receptor known to be critical for signalling (IL-1R477-527); assay: yeast interaction trap, panel of baits

binding [1]: no binding
B1: TNF-R1-DD ligand protein encoded by clone 3DD (ligand, not shown: large carriers)
chain: EVQDLFEAQGNDRLKLLVLYSGEDDELLQRAAAGGLAMLTSMRPTLCSRIPQVTTHWLEILQALLLSSNQELQHRGAVVVLNMVEASREIASTLMESEMMEILSVLAKGDHSPVTRAAAACLDKAVEYGLIQPNQDGE

binding [2]: binds
B2: TNF-R1-DD ligand protein encoded by clone 1TU (ligand, not shown: large carriers)
chain: SLKANIPEVEAVLNTDRSLVCDGKRGLLTRLLQVMKKEPAESSFRFWQARAVESFLRGTTSYADQMFLLKRGLLEHILYCIVDSECKSRDVLQSYFDLLGELMKFNVDAFKRFNKYINTDAKFQVFLKQINSSLVDSNMLVRCVTLSLDRFENQVDMKVAEVLSECRLLAYISQVPTQMSFLFRLINIIHVQTLTQENVSCLNTSLVILMLARRKERLPLYLRLLQRMEHSKKYPGFLLNNFHNLLRFWQQHYLHKDKDSTCLENSSCISFSYWKETVSILLNPDRQSPSALVSYIEEPYMDIDRDFTEE

— patent publication US20020164716A1
